Test results reported in patent US20250277012A1 (Protagonist Therapeutics, Inc., priority 2021, published 2025).
At least one structure is not confirmed: it was looked up by name or label, or the drawing left a doubt. Positions of bridges follow the written chain, without caps; N, C: chain ends. Non-standard residues stand in square brackets, D forms with d. Residues, ends and D or L forms follow the SMILES beside them. Groups on a side chain read outwards from the residue. *: point of attachment. X2 = C[N+](C)(CCNC(=O)CCCCCCCCCCCCCCCCC(=O)O)CC(=O)NCC[N+](C)(C)CC(=O)*; PEG12 = NCCOCCOCCOCCOCCOCCOCCOCCOCCOCCOCCOCCOCCC(=O)O; C18 diacid = O=C(O)CCCCCCCCCCCCCCCCC(=O)*; Dip = N[C@H](C(=O)O)C(c1ccccc1)c1ccccc1; 2Nal = N[C@@H](Cc1ccc2ccccc2c1)C(=O)O; His(τ-Me) = Cn1cnc(C[C@H](N)C(=O)O)c1; 3Pal = N[C@@H](Cc1cccnc1)C(=O)O; β3hF = N[C@H](CC(=O)O)Cc1ccccc1; NMeK = CN[C@@H](CCCCN)C(=O)O; Isovaleryl = CC(C)CC(=O)*; Dap = NC[C@H](N)C(=O)O; AEEA = NCCOCCOCC(=O)O

Columns and labels:
ferroportin [1] = molecular target: T1, ferroportin (Homo sapiens, UniProt Q9NP59); test: FPN activity assay: ferroportin-GFP internalization/degradation in HEK293 cells; type: cell-based; set-up: expressed in transfected cells; details: ferroportin-GFP internalization/degradation, HEK293 cells; Table 6E; read-out: FPN IC50
T1 sequence (Q9NP59 1-571): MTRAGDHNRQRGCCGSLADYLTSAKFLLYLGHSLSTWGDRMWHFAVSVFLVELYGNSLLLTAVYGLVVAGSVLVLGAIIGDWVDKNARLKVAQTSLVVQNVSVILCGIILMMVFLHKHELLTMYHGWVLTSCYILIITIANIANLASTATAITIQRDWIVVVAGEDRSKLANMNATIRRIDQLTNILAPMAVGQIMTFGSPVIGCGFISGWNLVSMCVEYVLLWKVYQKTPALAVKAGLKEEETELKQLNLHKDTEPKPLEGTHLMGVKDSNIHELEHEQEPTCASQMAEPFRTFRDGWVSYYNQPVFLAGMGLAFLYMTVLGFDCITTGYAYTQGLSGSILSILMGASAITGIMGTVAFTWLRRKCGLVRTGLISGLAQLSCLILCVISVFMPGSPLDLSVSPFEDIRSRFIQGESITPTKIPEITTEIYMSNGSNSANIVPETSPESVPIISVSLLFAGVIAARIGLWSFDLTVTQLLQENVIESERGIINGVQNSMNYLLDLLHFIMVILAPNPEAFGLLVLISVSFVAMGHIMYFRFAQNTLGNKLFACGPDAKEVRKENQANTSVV
Experimental: Following internalization, the ferroporin protein is degraded.
A retro inverse peptide is a peptide with a reversed sequence in all D amino acids. An example is that Hy-Glu-Thr-His-NH2 becomes Hy-DHis-DThr-DGlu-NH2. The EC50 of these reference compounds for ferroportin internalization/degradation was determined according to the FPN activity assay described above. These peptides served as control standards.

ferroportin [2] = molecular target: T1, ferroportin; test: T47D cell-based ferroportin internalization assay in presence of mouse serum albumin (MSA); set-up: a human breast carcinoma adherent cell line which endogenously expresses ferroportin; host or cells: T47D; details: T47D internalization assay in presence of mouse serum albumin (MSA); Table 6E
Experimental: The potency of the peptides in causing ferroportin internalization was evaluated in a T47D cell-based assay. […] In this internalization assay, the potency of the test peptides was evaluated in presence of serum albumin which is the main protein component in the blood. T47D cells were maintained in RPMI media (containing required amount of fetal bovine serum) and regularly sub-cultured. In preparation for the assay, the cells were seeded in 96-well plates at a density of 80-100 k cells per well in 100 ul volume and allowed to rest overnight. […] Sigma, A3139). The test peptide dilution series were allowed to incubate at room temperature for 30 min. Then the media was aspirated from the 96-well cell plate and test peptide dilution series were added. […] The AF647-conjugated detection peptide was previously verified to bind to ferroportin and cause its internalization. The cells were washed again after a 2 hr incubation in preparation for flow cytometry analysis. The Median Fluorescence Intensity (MFI) of the AF647-positive population was measured (after removing dead cells and non-singlets from the analysis). The MFI values were used to generate a dose-response curve and obtain IC50 potencies for the test peptides.

Row | SMILES | DC50 (ferroportin [1]) | IC50 (ferroportin [2])
1 | CC(C)CC(=O)N[C@@H](CCC(=O)O)C(=O)N[C@H](C(=O)N[C@@H](Cc1cccnc1)C(=O)N[C@H](C(=O)N1CCC[C@H]1C(=O)N[C@H]1CSSC[C@@H](C(=O)N(C)[C@@H](CCCCNC(=O)COCCOCCNC(=O)COCCOCCNC(=O)[C@H](CN)NC(=O)CCCCCCCCCCCCCCCCC(=O)O)C(=O)N[C@H](C(=O)N[C@H](CCCCN)C(N)=O)C(c2ccccc2)c2ccccc2)NC1=O)C(c1ccccc1)c1ccccc1)[C@@H](C)O [compound 243] (Isovaleryl-ET[3Pal][Dip]PCC[NMeK]([AEEA-AEEA-Dap-C18 diacid])[Dip][dK]-NH2; disulfide 6-7) | 10 to 100 nM | 10 to 100 nM
2 | CC(C)CC(=O)N[C@@H](CCC(=O)O)C(=O)N[C@H](C(=O)N[C@@H](Cc1c[nH]cn1)C(=O)N[C@H](C(=O)N1CCC[C@H]1C(=O)N[C@H]1CSSC[C@@H](C(=O)N(C)[C@@H](CCCCNC(=O)COCCOCCNC(=O)COCCOCCNC(=O)[C@H](CN)NC(=O)CCCCCCCCCCCCCCCCC(=O)O)C(=O)N[C@H](CC(=O)N[C@H](CCCCN)C(=O)N[C@@H](Cc2ccc3ccccc3c2)C(N)=O)Cc2ccccc2)NC1=O)C(c1ccccc1)c1ccccc1)[C@@H](C)O [compound 261] (Isovaleryl-ETH[Dip]PCC[NMeK]([AEEA-AEEA-Dap-C18 diacid])[β3hF][dK][2Nal]-NH2; disulfide 6-7) | 10 to 100 nM | 10 to 100 nM
3 | CC(C)CC(=O)N[C@@H](CCC(=O)O)C(=O)N[C@H](C(=O)N[C@@H](Cc1cn(C)cn1)C(=O)N[C@H](C(=O)N1CCC[C@H]1C(=O)N[C@H]1CSSC[C@@H](C(=O)N(C)[C@@H](CCCCNC(=O)COCCOCCNC(=O)COCCOCCNC(=O)[C@H](CN)NC(=O)CCCCCCCCCCCCCCCCC(=O)O)C(=O)N[C@H](CC(=O)N[C@H](CCCCN)C(N)=O)Cc2ccccc2)NC1=O)C(c1ccccc1)c1ccccc1)[C@@H](C)O [compound 285] (Isovaleryl-ET[His(τ-Me)][Dip]PCC[NMeK]([AEEA-AEEA-Dap-C18 diacid])[β3hF][dK]-NH2; disulfide 6-7) | 10 to 100 nM | 10 to 100 nM
4 | COC(=O)CC[C@H](NC(=O)CC(C)C)C(=O)N[C@H](C(=O)N[C@@H](Cc1c[nH]cn1)C(=O)N[C@H](C(=O)N1CCC[C@H]1C(=O)N[C@H]1CSSC[C@H](C(=O)N[C@@H](CCCCNC(=O)COCCOCCNC(=O)COCCOCCNC(=O)[C@H](CN)NC(=O)CCCCCCCCCCCCCCCCC(=O)O)C(=O)N[C@H](CC(=O)N[C@H](CCCCN)C(N)=O)Cc2ccccc2)NC1=O)C(c1ccccc1)c1ccccc1)[C@@H](C)O [compound 313] (Isovaleryl-E(OMe)TH[Dip]PC[dC]K([AEEA-AEEA-Dap-C18 diacid])[β3hF][dK]-NH2; disulfide 6-7) | 10 to 100 nM | 1 to 10 nM
5 | CC(C)CC(=O)N[C@@H](CCC(=O)O)C(=O)N[C@H](C(=O)N[C@@H](Cc1c[nH]cn1)C(=O)N[C@H](C(=O)N1CCC[C@H]1C(=O)N[C@H]1CSSC[C@H](C(=O)N[C@@H](CCCCNC(=O)COCCOCCNC(=O)COCCOCCNC(=O)[C@H](CN)NC(=O)CCCCCCCCCCCCCCCCC(=O)O)C(=O)N[C@H](CC(=O)N[C@H](CCCCN)C(N)=O)Cc2ccccc2)NC1=O)C(c1ccccc1)c1ccccc1)[C@@H](C)O [compound 314] (Isovaleryl-ETH[Dip]PC[dC]K([AEEA-AEEA-Dap-C18 diacid])[β3hF][dK]-NH2; disulfide 6-7) | 10 to 100 nM | 1 to 10 nM

Results, then the compound that gave them:

Row | DC50 (ferroportin [1]) | IC50 (ferroportin [2]) | SMILES
6 | 10 to 100 nM | 10 to 100 nM | COC(=O)CC[C@H](NC(=O)CC(C)C)C(=O)N[C@H](C(=O)N[C@@H](Cc1c[nH]cn1)C(=O)N[C@H](C(=O)N1CCC[C@H]1C(=O)N[C@H]1CSSC[C@@H](C(=O)N(C)[C@@H](CCCCNC(=O)CCOCCOCCOCCOCCOCCOCCOCCOCCOCCOCCOCCOCCNC(=O)[C@H](CN)NC(=O)CCCCCCCCCCCCCCCCC(=O)O)C(=O)N[C@H](CC(=O)N[C@H](CCCCN)C(N)=O)Cc2ccccc2)NC1=O)C(c1ccccc1)c1ccccc1)[C@@H](C)O [compound 303] (Isovaleryl-E(OMe)TH[Dip]PCC[NMeK]([PEG12-Dap-C18 diacid])[β3hF][dK]-NH2; disulfide 6-7)
7 | 10 to 100 nM | 10 to 100 nM | CC(C)CC(=O)N[C@@H](CCC(=O)O)C(=O)N[C@H](C(=O)N[C@@H](Cc1c[nH]cn1)C(=O)N[C@H](C(=O)N1CCC[C@H]1C(=O)N[C@H]1CSSC[C@@H](C(=O)N(C)[C@@H](CCCCNC(=O)CCOCCOCCOCCOCCOCCOCCOCCOCCOCCOCCOCCOCCNC(=O)[C@H](CN)NC(=O)CCCCCCCCCCCCCCCCC(=O)O)C(=O)N[C@H](CC(=O)N[C@H](CCCCN)C(N)=O)Cc2ccccc2)NC1=O)C(c1ccccc1)c1ccccc1)[C@@H](C)O [compound 304] (Isovaleryl-ETH[Dip]PCC[NMeK]([PEG12-Dap-C18 diacid])[β3hF][dK]-NH2; disulfide 6-7)
8 | 10 to 100 nM | 10 to 100 nM | COC(=O)CC[C@H](NC(=O)CC(C)C)C(=O)N[C@H](C(=O)N[C@@H](Cc1c[nH]cn1)C(=O)N[C@H](C(=O)N1CCC[C@H]1C(=O)N[C@H]1CSSC[C@@H](C(=O)N[C@@H](CCCCNC(=O)C[N+](C)(C)CCNC(=O)C[N+](C)(C)CCNC(=O)CCCCCCCCCCCCCCCCC(=O)O)C(=O)N[C@H](CC(=O)N[C@H](CCCCN)C(N)=O)Cc2ccccc2)NC1=O)C(c1ccccc1)c1ccccc1)[C@@H](C)O [compound 309] (Isovaleryl-E(OMe)TH[Dip]PCCK(X2)[β3hF][dK]-NH2; disulfide 6-7)
9 | 10 to 100 nM | 10 to 100 nM | CC(C)CC(=O)N[C@@H](CCC(=O)O)C(=O)N[C@H](C(=O)N[C@@H](Cc1c[nH]cn1)C(=O)N[C@H](C(=O)N1CCC[C@H]1C(=O)N[C@H]1CSSC[C@@H](C(=O)N[C@@H](CCCCNC(=O)C[N+](C)(C)CCNC(=O)C[N+](C)(C)CCNC(=O)CCCCCCCCCCCCCCCCC(=O)O)C(=O)N[C@H](CC(=O)N[C@H](CCCCN)C(N)=O)Cc2ccccc2)NC1=O)C(c1ccccc1)c1ccccc1)[C@@H](C)O [compound 310] (Isovaleryl-ETH[Dip]PCCK(X2)[β3hF][dK]-NH2; disulfide 6-7)
